The values that follow come from the supplement of paper PMC8007513.

Some of the results follow. Repeats are few or missing, and single values can be far off.

The subject of the test is Saccharomyces cerevisiae BY4743. As to the kind of experiment: growth (OD600) with compound + IPBC relative to untreated control; higher = less growth inhibition. The following applies: compound concentration: 133 uM; IPBC concentration: 0.5 ug/ml; 20 h. Here is the method:
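NMCCC compounds (133 uM) combined with IPBC (0.5 ug/ml) against Saccharomyces cerevisiae BY4743 in YPD, 96-well plates. Growth was read as OD600 at 20 h and expressed as % of the untreated control. Single pass.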
In the case of `CCCOc1ccc(C(F)(F)F)cc1NS(=O)(=O)c1ccc(CNC(C)=O)s1` + CCCCNC(=O)OCC#CI [3-iodo-2-propynyl butylcarbamate (IPBC)], the growth amounted to 100%. As for `CS(=O)(=O)NCCc1ccc(C(=O)OCC(=O)N2CCCc3ccccc32)s1` + CCCCNC(=O)OCC#CI [3-iodo-2-propynyl butylcarbamate (IPBC)], the figure is 103%; as for `NC(=O)Nc1cccc(C(=O)N2CCOc3ccccc32)c1` + CCCCNC(=O)OCC#CI [3-iodo-2-propynyl butylcarbamate (IPBC)], 103%. As for `COC(=O)c1ccc(CS(=O)(=O)N2CCCC2c2ccc(OC)c(OC)c2)cc1` (stereo not given) + CCCCNC(=O)OCC#CI [3-iodo-2-propynyl butylcarbamate (IPBC)], the figure is 109%. Take `CC(NC(=O)CSc1ncc(-c2ccccc2)nn1)c1ccccc1` (stereo not given) + CCCCNC(=O)OCC#CI [3-iodo-2-propynyl butylcarbamate (IPBC)]: the growth is 69.2%. As for `CCOc1ccc(N2C(=O)CCS2(=O)=O)cc1S(=O)(=O)N(Cc1ccccc1)C(C)C` + CCCCNC(=O)OCC#CI [3-iodo-2-propynyl butylcarbamate (IPBC)], the figure is 78.6%; as for `CCC1=CC=C(Cl)C(=C1NC(=O)C/2=N/N(C)C(=O)/C=C2)CC` + CCCCNC(=O)OCC#CI [3-iodo-2-propynyl butylcarbamate (IPBC)], 99.2%; as for `CCN(C(=O)NCc1noc2ccc(C)cc12)c1cccc(Cl)c1` + CCCCNC(=O)OCC#CI [3-iodo-2-propynyl butylcarbamate (IPBC)], 87%. Turning to `COc1cc(OC)c(NS(=O)(=O)c2cc3c(cc2C)N(C(C)=O)CCO3)cc1Cl` + CCCCNC(=O)OCC#CI [3-iodo-2-propynyl butylcarbamate (IPBC)], the growth is 100%. The value for `CCOc1ccc(N2C(=O)N(CC(=O)NCCC(C)C)c3ccccc3S2(=O)=O)cc1` + CCCCNC(=O)OCC#CI [3-iodo-2-propynyl butylcarbamate (IPBC)] was 98.1%; that for `O=C(COCC(F)(F)F)NC(c1ccccc1)c1cc2ccccc2o1` (stereo not given) + CCCCNC(=O)OCC#CI [3-iodo-2-propynyl butylcarbamate (IPBC)] was 93.6%; that for `COc1cc(OC)c(NS(=O)(=O)c2ccc3c(c2)CCCC(=O)N3)cc1Cl` + CCCCNC(=O)OCC#CI [3-iodo-2-propynyl butylcarbamate (IPBC)] was 106%. The value for `C[S](=O)(=O)NC1=CC=CC(=C1)\C2=N\N(C(C2)C3=CC=CC=C3O)[S](C)(=O)=O` (stereo not given) + CCCCNC(=O)OCC#CI [3-iodo-2-propynyl butylcarbamate (IPBC)] was 105%; that for `CSc1nc(C)c(CC(=O)N2CCN(S(=O)(=O)c3ccccc3C(F)(F)F)CC2)s1` + CCCCNC(=O)OCC#CI [3-iodo-2-propynyl butylcarbamate (IPBC)] was 106%. As for `COc1cc(C(=O)OCC(=O)NC2(C#N)CCCC2)cc2c1OCCO2` + CCCCNC(=O)OCC#CI [3-iodo-2-propynyl butylcarbamate (IPBC)], the growth was 114%.

Consider `Cc1[nH]c2ccc(C(=O)OCC(=O)c3cc(C)n(C)c3C)cc2c1C` + CCCCNC(=O)OCC#CI [3-iodo-2-propynyl butylcarbamate (IPBC)], for which the growth stood at 77.3%. `COC(=O)c1cc(NC(=O)Cc2ccc(NC(=O)OC(C)(C)C)cc2)ccc1Cl` + CCCCNC(=O)OCC#CI [3-iodo-2-propynyl butylcarbamate (IPBC)]: the growth was 112%.

As for `CCOC(=O)c1ccc(NC(NC(=O)OC)(c2ccccc2)C(F)(F)F)o1` (stereo not given) + CCCCNC(=O)OCC#CI [3-iodo-2-propynyl butylcarbamate (IPBC)], the growth is 108%. In the case of `COc1ccc(-c2nnc(SCC(=O)OC(C)C)n2-c2ccccc2)cc1` + CCCCNC(=O)OCC#CI [3-iodo-2-propynyl butylcarbamate (IPBC)], the growth came to 91.7%.

With `CSc1nc2ccc(NC(=O)CSC(C)C(=O)Nc3cc(C)on3)cc2s1` (stereo not given) + CCCCNC(=O)OCC#CI [3-iodo-2-propynyl butylcarbamate (IPBC)], the growth amounted to 111%. The value for `CNC(=O)C(c1ccc(Cl)cc1)N(C)Cc1cc2c(cc1Br)OCCO2` (stereo not given) + CCCCNC(=O)OCC#CI [3-iodo-2-propynyl butylcarbamate (IPBC)] was 102%; that for `CC(NC(=O)CSc1nc(O)c2ccsc2n1)c1cccs1` (stereo not given) + CCCCNC(=O)OCC#CI [3-iodo-2-propynyl butylcarbamate (IPBC)] was 92.5%. As to `COC(CN(C)C(=O)c1cc2c(C)nc3ccccc3c2o1)OC` + CCCCNC(=O)OCC#CI [3-iodo-2-propynyl butylcarbamate (IPBC)], the growth was determined as 82.2%.

Regarding `CC(C)(C)C1=CSC(=N1)NC(=O)\C2=N\N(CC3=CC=C(F)C=C3)C(=O)CC2` + CCCCNC(=O)OCC#CI [3-iodo-2-propynyl butylcarbamate (IPBC)], the growth was 85.1%. Take `CCN(CC)C(=O)Cn1c(S(=O)(=O)Cc2ccccc2)nc2ccccc21` + CCCCNC(=O)OCC#CI [3-iodo-2-propynyl butylcarbamate (IPBC)]: the growth came to 98.6%. Regarding `CC1CCN(c2ccc(NC(=O)CSc3nc(C(C)C)n[nH]3)cc2)CC1` + CCCCNC(=O)OCC#CI [3-iodo-2-propynyl butylcarbamate (IPBC)], the growth was found to be 96%.

`CC(C)CCNC(=O)CN1C(=O)CSc2ncccc21` + CCCCNC(=O)OCC#CI [3-iodo-2-propynyl butylcarbamate (IPBC)]: the growth amounted to 104%. The value for `O=C(CCc1nnc(-c2ccccc2)o1)Nc1ccccc1OC(F)F` + CCCCNC(=O)OCC#CI [3-iodo-2-propynyl butylcarbamate (IPBC)] was 100%; that for `COc1ccc(C(CNC(=O)c2ccc(NS(=O)(=O)c3ccc(F)c(C)c3)cc2)N(C)C)cc1` (stereo not given) + CCCCNC(=O)OCC#CI [3-iodo-2-propynyl butylcarbamate (IPBC)] was 113%. As for `CC(=O)Nc1c(C)noc1/C=C\c1ccc(C)c(S(=O)(=O)NC2CCCC2)c1` + CCCCNC(=O)OCC#CI [3-iodo-2-propynyl butylcarbamate (IPBC)], the figure is 98.2%; as for `CC(=O)\C1=C(/O)C(=O)N(C1C2=CC=CN=C2)C3=CC=C(OCC(O)=O)C=C3` (stereo not given) + CCCCNC(=O)OCC#CI [3-iodo-2-propynyl butylcarbamate (IPBC)], 85%; as for `COC(=O)c1cc(OC)c(OC)cc1NS(=O)(=O)c1ccccc1C(F)(F)F` + CCCCNC(=O)OCC#CI [3-iodo-2-propynyl butylcarbamate (IPBC)], 98.7%.

As for `C[N]1N=C(C)C\2=C1C(=O)N(CC(=O)NCC3=CC=CC=C3C)\C=C2` + CCCCNC(=O)OCC#CI [3-iodo-2-propynyl butylcarbamate (IPBC)], the growth was 79.6%. As for `CN(C)c1ccc(CN(Cc2ccco2)C(=O)COc2ccc(F)cc2)cc1` + CCCCNC(=O)OCC#CI [3-iodo-2-propynyl butylcarbamate (IPBC)], the figure is 81.6%. The value for `CC(NC(=O)CN1CCN(Cc2ccc(Br)s2)CC1)c1ccc(F)cc1` (stereo not given) + CCCCNC(=O)OCC#CI [3-iodo-2-propynyl butylcarbamate (IPBC)] was 76.5%; that for `Cc1cc(CS(=O)(=O)C(C)C(=O)Nc2ccc(Cl)cc2)on1` (stereo not given) + CCCCNC(=O)OCC#CI [3-iodo-2-propynyl butylcarbamate (IPBC)] was 114%.

Turning to `Cc1noc(C)c1CCC(=O)N1CCN(CC2CCCO2)CC1` (stereo not given) + CCCCNC(=O)OCC#CI [3-iodo-2-propynyl butylcarbamate (IPBC)], the growth came out at 98.9%. The value for `CC(C)C1C(=O)Nc2ccc(S(=O)(=O)N3CCCCCC3)cc21` (stereo not given) + CCCCNC(=O)OCC#CI [3-iodo-2-propynyl butylcarbamate (IPBC)] was 102%; that for `Cl\C1=C(\CCCC1)C(=O)NC2=CC=C(C=C2)N3CCOCC3` + CCCCNC(=O)OCC#CI [3-iodo-2-propynyl butylcarbamate (IPBC)] was 102%; that for `CN(C1=CC=CC=C1)C(=O)\C2=C\C(=N/[S](=O)(=O)N2C)C3=CC=C(C)C=C3` + CCCCNC(=O)OCC#CI [3-iodo-2-propynyl butylcarbamate (IPBC)] was 83.3%.
